Assay results published in PubChem BioAssay AID493014 (National Center for Advancing Translational Sciences (NCATS), 2011).
Hit rate of the full screen: of about 340,000 compounds, about 170 (0.05%) were called active. The inconclusive results got no clear call from the source; some entries with a clear call stand among them for comparison. Calls follow the shape of the dose curve; as a rule, active = well fitted inhibition curve with a large enough effect in the signal ratio, with a control signal flat (not every such curve was filed as active); inconclusive = small, poorly fitted or top-dose-only effect, or effect the other way, or a change in a side signal; inactive = flat fitted curve, though single readings scatter; the % refers to the signal ratio. Where the call is inconclusive, the potency comes from a doubtful curve fit.

Test: qHTS Assay to Find Inhibitors of Chronic Active B-Cell Receptor Signaling;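 as to activity change, negative = inhibition: plate controls were basal doxycycline-induced cells for no effect and cells given 10 µM MG132 for full effect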
Details: ABC-DLBCL IkBa-CBG/CBR reporter, luminescence ratio (green luciferase fused to IkBa over red control in TMD8 lymphoma cells), 4 h; activity change, negative = inhibition: at 46.1 µM (top of the series) unless noted
Procedure, shortened: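 Doxycycline induced both beetle luciferases in TMD8 lymphoma cells; IKK-driven degradation limits the IkappaBalpha-fused green signal, while red luminescence normalises for cell number and nonspecific effects. Compounds tested up to 46 uM, 4 hrs.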
Potency is read from the fitted curve at half-maximal effect.

| SMILES | activity change, negative = inhibition | Potency |
| --- | --- | --- |
| CC(C)c1ccc(NC(=O)c2ccc(=O)n(Cc3ccccc3)c2)cc1 | inconclusive: 8.68% |  |
| CN(CCC#N)C(=O)c1cc2c(s1)-c1ccccc1SC2 | inconclusive: -4.82% |  |
| COCCCNCCOc1ccc(C(C)(C)c2ccccc2)cc1 |  | inconclusive: 20.6 µM [falling, single point] |
| c1ccc(-c2cccc(-c3ccccn3)n2)nc1 | inactive |  |
| COC(=O)Oc1ccc(/C=N/NC(=O)CN(c2ccccc2Cl)S(C)(=O)=O)cc1OC |  | inconclusive: 23.1 µM [falling, partial curve, poor fit] |
| Cc1ccc(C)c(N2CCN(S(=O)(=O)c3ccc(-c4cc(C)no4)s3)CC2)c1 | inconclusive: 5% |  |
| Cc1cccn2cc(CNC(=O)CC3CCCC3)nc12 | inconclusive: 7.18% |  |
| Cc1sc2nc(CN3CCOCC3)nc(NS(=O)(=O)c3ccccc3)c2c1C | inactive |  |
| Cc1cccc(-n2c(SCC(=O)Nc3ccc(C)c(C)c3)nc3n[nH]c(C)c3c2=N)c1 | inactive |  |
| COc1ccc(S(=O)(=O)NC2CC2)cc1Br | inconclusive: 0.621% |  |
| CC(C)c1cc(=O)n2[nH]c(SCc3ccccc3)nc2n1 |  | inconclusive: 35.5 µM [falling, single point] |
| O=C(OCCc1ccccc1)c1cc(O)c(O)c(O)c1 |  | inconclusive: 23.1 µM [falling, single point] |
| COC(=O)c1c(-c2ccc(OC)cc2)sc2ccc(OC)cc12 | inconclusive: -0.565% |  |
| CN(C)C(=O)COC(=O)c1cccc(S(=O)(=O)N2CC3(C)CC2CC(C)(C)C3)c1 (stereo not drawn) | inactive |  |
| CCCSc1nnc(NC(=O)c2ccco2)s1 |  | inconclusive: 12.6 µM [falling, partial curve] |
| O=c1cc(/C=C/c2cccs2)[nH]c2ccccc12 | inconclusive: 12.4% |  |
| COc1ccc(/C=C/C(=O)Nc2ccc(-n3nncc3-c3ccccc3)cc2)cc1OC |  | inconclusive: 14.6 µM [falling, partial curve] |
| S=C1NC2(CCCCC2)NN1c1ccccc1 | inconclusive: 9.23% |  |
| CCc1ccc(CCC(=O)Nc2ccc(C)c(C)c2)o1 | inconclusive: 10.2% |  |
| COc1cn(-c2ccccc2)nc1C(=O)OCC(=O)Nc1ccc(C)c(C)c1 | inconclusive: 1.4% |  |
| COC(=O)C1CCN(C(=O)COC(=O)c2ccc(OC)c(S(=O)(=O)N3CCCc4ccccc43)c2)CC1 | inactive |  |
| COc1ccc(/C=C/CN2CCC(n3nccc3NC(=O)C3CC3)CC2)cc1 | inactive |  |
| CCOC(=O)c1sc(C)c2c1NC1(CCCCC1)NC2=O | inconclusive: -1.45% |  |
| CCCCCSc1nnc2c(n1)OC(c1cccn1C)N(C(C)=O)c1ccccc1-2 (stereo not drawn) | inconclusive: -10.5% |  |
| COc1ccc(-c2nc3sc(CCNC(=O)C(=O)Nc4ccccc4C#N)c(C)n3n2)cc1 | inactive |  |
| O=C(Nc1cc(S(=O)(=O)N2CCOCC2)ccc1N1CCOCC1)c1ccccc1Cl | inconclusive: 1.91% |  |

| SMILES | activity change, negative = inhibition | Potency |
| --- | --- | --- |
| COc1cccc(OC)c1C(=O)OCC(=O)Nc1ccc(OC(F)(F)F)cc1 | inconclusive: 22.8% |  |
| Cc1cc(NC(c2ccc(Cl)cc2)c2ccc3cccnc3c2O)no1 (stereo not drawn) |  | inconclusive: 14.6 µM [falling, partial curve] |
| Cc1nc(-c2ccc(C(=O)Nc3ccc(F)cc3)cc2)cs1 | inconclusive: -14.6% |  |
| CCOc1ccc(/C=N/NC(=O)c2nnn(-c3nonc3N)c2CN2CCC(C)CC2)cc1 | inactive |  |
| COn1c(=S)[nH]c2ccccc2c1=O | inconclusive: -0.594% |  |
| Cc1nn(C)c(C(=O)Nc2ccn(Cc3c(F)c(F)cc(F)c3F)n2)c1[N+](=O)[O-] | inactive |  |
| Brc1c(CSc2nncc3ccccc23)nc2ccccn12 |  | inconclusive: 7.94 µM [falling, partial curve] |
| COc1ccc(OC)c(NC(=O)CCN2CCN(C/C=C/c3ccccc3)CC2)c1 | inactive |  |
| NS(=O)(=O)c1cccc(NC(=O)CSc2nnc(-c3ccccc3)o2)c1 |  | inconclusive: 16.4 µM [falling, partial curve] |
| CNCC(=O)Nc1ccc(Cl)c(C(F)(F)F)c1 | inconclusive: -5.11% |  |
| COc1ccc(CCNC(=O)c2ccc(CNS(=O)(=O)c3cccc(Cl)c3)cc2)cc1OC |  | inconclusive: 16.4 µM [falling, single point] |
| CCOC(=O)[C@H]1[C@H]2COc3ccc(C)cc3[C@@H]2N2C(=O)c3ccc(F)cc3NC(=O)[C@@]12C |  | inconclusive: 6.51 µM [falling, single point] |
| CC1=C(C(=O)OC2CCCCC2)C(c2cccc([N+](=O)[O-])c2)NC(=O)N1 (stereo not drawn) | inconclusive: -15.1% |  |
| O=C1c2cccc(OCC(=O)N3N=C(c4cccs4)CC3c3ccc(F)cc3)c2CCN1Cc1cccnc1 (stereo not drawn) | inconclusive: -19% |  |
| O=C(N/N=C/c1ccccc1Cl)c1[nH]c2ccc(Br)cc2c1-c1ccccc1 | inconclusive: -10.6% |  |
| Cc1[nH]c(=O)[nH]c1C(=O)CCCCC(=O)OCC(=O)Nc1ccccn1 | inactive |  |
| O=C(Nc1nc2ccc([N+](=O)[O-])cc2s1)c1c(F)cccc1F |  | inconclusive: 35.5 µM [rising, single point] |
| O=C(Nc1ccc(Cl)cc1F)C1CCN(S(=O)(=O)c2cccc3nonc23)CC1 | inconclusive: -0.136% |  |
| Cn1c(=O)c2nnn(/N=C(\c3ccccc3)C3CC3)c2n(C)c1=O | inconclusive: 3.29% |  |
| COc1cc(OC)c(NC(=O)c2cncn2-c2ccc(F)cc2)cc1Cl | inactive |  |
| Cc1ccc(CNC(=O)c2c(Nc3c(C)cccc3C)sc(C(=O)c3ccccc3)c2N)cc1 |  | inconclusive: 5.01 µM [falling, partial curve, poor fit] |
| N/C(=N\OC(=O)c1ccc2c(c1)OCO2)c1cccc(Br)c1 | inconclusive: -10.7% |  |
| N#Cc1cccc(NC(=O)Nc2cccs2)c1 | inconclusive: -0.661% |  |
| O=C(COc1ccc(Cl)cc1)N1CCCC1 |  | inconclusive: 4.61 µM [falling, partial curve] |
| COc1ccc(Cc2nc3ccc(C(=O)N4CCCCC4CCO)cc3o2)cc1 (stereo not drawn) | inactive |  |
| O=C(Cc1cccc(NC(=O)C2CCCN(C(=O)CCc3ccccc3)C2)c1)Nc1cccc(C(=O)N2CCCC2)c1 (stereo not drawn) |  | inconclusive: 32.6 µM [falling, partial curve, poor fit] |

Three records drawn at random from the list so far, as already listed:

| SMILES | activity change, negative = inhibition | Potency |
| --- | --- | --- |
| COn1c(=S)[nH]c2ccccc2c1=O | inconclusive: -0.594% |  |
| COc1ccc(OC)c(NC(=O)CCN2CCN(C/C=C/c3ccccc3)CC2)c1 | inactive |  |
| O=C(COc1ccc(Cl)cc1)N1CCCC1 |  | inconclusive: 4.61 µM [falling, partial curve] |

Next entries follow.

| SMILES | activity change, negative = inhibition | Potency |
| --- | --- | --- |
| CC(C)(C)c1cc[n+](C2=C([O-])c3ccccc3C(=O)/C2=N\S(=O)(=O)c2cccs2)cc1 | inconclusive: 6.18% |  |
| O=[N+]([O-])c1ccc(-c2cnc(SCc3ccccc3Cl)[nH]2)cc1 | inconclusive: 8.06% |  |
| CCc1cnc2c(c1SC(C(C)=O)C(=O)N(C)C)c(=O)n(C)c(=O)n2C (stereo not drawn) | inactive |  |
| O=C(NCc1ccco1)c1cc2cc(Br)ccc2o1 |  | inconclusive: 22.4 µM [falling, single point] |
| O=C(Cn1cnc2c(nnn2Cc2ccccc2)c1=O)N1CCN(c2ccccc2)CC1 | inconclusive: -1.9% |  |
| COc1ccccc1C(=O)NNC(=O)c1ccc(NS(=O)(=O)c2cccs2)cc1 |  | inconclusive: 11.2 µM [falling, partial curve] |
| Cc1sc(NC(=O)CCCC(=O)O)c(C(N)=O)c1-c1ccccc1 |  | inconclusive: 3.98 µM [falling, full curve, poor fit] |
| O=C(Cn1nnc(-c2ccccc2F)n1)OCC(=O)c1ccccc1 | inconclusive: -14.9% |  |
| Nc1c(C(=O)OCC2CCCO2)c2nc3ccccc3nc2n1C1CCCC1 (stereo not drawn) | inconclusive: -10.4% |  |
| Cc1ccc(C)c(OCCC(=O)Nc2ccc(S(=O)(=O)N3CCCC3)cc2)c1 |  | inconclusive: 32.6 µM [falling, partial curve, poor fit] |
| CC(C)c1cccc(OCCN2CCCC2)c1 | inactive |  |
| CC(C)[C@H](NC(=O)[C@@H]1Cc2ccccc2CN1C(=O)OC(C)(C)C)C(=O)NC1CCCC1 | inactive |  |
| O=C(Nc1ccc2snnc2c1)Nc1cccc2ccccc12 |  | inconclusive: 0.58 µM [falling, full curve, poor fit] |
| C/C(CC(=O)Nc1ccc(N(C)C)cc1)=N\NC(=O)c1ccncc1 |  | inconclusive: 11.2 µM [falling, partial curve] |
| COc1cc(NC(=O)CSc2nnc(-c3cc(C)on3)o2)cc(OC)c1 |  | inconclusive: 31.6 µM [falling, partial curve, poor fit] |
| O=C(CN1c2ccccc2Sc2ccccc21)NNC(=S)Nc1ccc(Cl)cc1 |  | inconclusive: 35.5 µM [falling, single point] |
| CCn1c(SCc2ccc(Cl)cc2Cl)nc2nc3c(cc2c1=O)CCCC3 | inactive |  |
| CCOC(=O)c1ccc(N2C(=O)CC(NNC(=O)c3ccc(Br)s3)C2=O)cc1 (stereo not drawn) | inconclusive: 4.99% |  |
| CSc1nc(C2CC2)cc(-c2cccs2)c1C#N | inconclusive: -0.639% |  |
| CCOC(=O)C1=C(c2ccccc2)Nc2ncnn2C1c1ccc(O)cc1 (stereo not drawn) | inconclusive: -28% |  |
| CCOC(=O)C(=Cc1cn(C)c2ccc(S(=O)(=O)N(C)C)cc12)C(=O)OCC |  | inconclusive: 5.01 µM [falling, full curve, poor fit] |
| COc1ccc(COC(=O)c2ccc(Cl)c(S(=O)(=O)N3CC(C)OC(C)C3)c2)cc1 (stereo not drawn) | inactive |  |
| COc1cc(C(=O)NCC2CCCO2)ccc1OCc1ccc(Cl)cc1 (stereo not drawn) | inconclusive: 6.22% |  |
| Cc1ccc2oc(-c3cccc(NC(=O)C4CCCO4)c3)nc2c1 (stereo not drawn) | inactive |  |
| CC(=O)c1ccc(NS(=O)(=O)Cc2ccc(Cl)cc2)cc1 | inconclusive: 20.6% |  |
| Oc1ccc(-c2csc(Nc3ccccn3)n2)cc1 |  | inconclusive: 35.5 µM [rising, single point] |
